# Data: the supplement of paper PMC6411743
# Protein sequences, listed by entry. Tags and fused reporters are not part of them. Lines headed by an entry give the natural chain unless they say otherwise; changes in a name come on top.
# UniProt O75155: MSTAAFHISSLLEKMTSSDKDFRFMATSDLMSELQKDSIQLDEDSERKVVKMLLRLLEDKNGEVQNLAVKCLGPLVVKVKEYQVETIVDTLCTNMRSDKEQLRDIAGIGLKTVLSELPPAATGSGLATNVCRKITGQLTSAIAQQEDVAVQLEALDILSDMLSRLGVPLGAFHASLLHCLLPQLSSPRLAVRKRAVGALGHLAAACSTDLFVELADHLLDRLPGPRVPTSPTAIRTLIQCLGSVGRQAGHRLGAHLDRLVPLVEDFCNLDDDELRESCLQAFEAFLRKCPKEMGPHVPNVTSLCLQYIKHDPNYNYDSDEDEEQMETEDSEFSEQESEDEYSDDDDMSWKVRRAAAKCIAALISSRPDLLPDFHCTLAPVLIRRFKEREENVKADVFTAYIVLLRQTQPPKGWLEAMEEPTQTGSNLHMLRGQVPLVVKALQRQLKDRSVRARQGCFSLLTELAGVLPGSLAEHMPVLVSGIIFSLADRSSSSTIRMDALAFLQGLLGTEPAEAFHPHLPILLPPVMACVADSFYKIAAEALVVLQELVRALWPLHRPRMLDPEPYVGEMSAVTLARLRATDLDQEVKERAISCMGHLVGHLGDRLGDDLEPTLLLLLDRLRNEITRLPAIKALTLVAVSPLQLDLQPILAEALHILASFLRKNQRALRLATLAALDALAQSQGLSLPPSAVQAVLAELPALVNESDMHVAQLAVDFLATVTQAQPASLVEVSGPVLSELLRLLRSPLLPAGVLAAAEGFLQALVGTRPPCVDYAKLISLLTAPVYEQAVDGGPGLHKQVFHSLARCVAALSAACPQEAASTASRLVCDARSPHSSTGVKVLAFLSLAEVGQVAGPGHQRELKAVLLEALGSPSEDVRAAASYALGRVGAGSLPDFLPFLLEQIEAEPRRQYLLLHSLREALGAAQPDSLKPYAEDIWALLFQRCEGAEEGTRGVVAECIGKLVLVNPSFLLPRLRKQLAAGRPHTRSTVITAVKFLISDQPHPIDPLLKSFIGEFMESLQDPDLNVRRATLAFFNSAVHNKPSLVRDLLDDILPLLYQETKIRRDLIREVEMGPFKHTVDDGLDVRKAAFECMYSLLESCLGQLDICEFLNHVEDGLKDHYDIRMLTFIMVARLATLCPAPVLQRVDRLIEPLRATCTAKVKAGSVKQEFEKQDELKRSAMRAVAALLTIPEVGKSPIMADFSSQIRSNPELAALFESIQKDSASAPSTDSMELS
# UniProt O95376: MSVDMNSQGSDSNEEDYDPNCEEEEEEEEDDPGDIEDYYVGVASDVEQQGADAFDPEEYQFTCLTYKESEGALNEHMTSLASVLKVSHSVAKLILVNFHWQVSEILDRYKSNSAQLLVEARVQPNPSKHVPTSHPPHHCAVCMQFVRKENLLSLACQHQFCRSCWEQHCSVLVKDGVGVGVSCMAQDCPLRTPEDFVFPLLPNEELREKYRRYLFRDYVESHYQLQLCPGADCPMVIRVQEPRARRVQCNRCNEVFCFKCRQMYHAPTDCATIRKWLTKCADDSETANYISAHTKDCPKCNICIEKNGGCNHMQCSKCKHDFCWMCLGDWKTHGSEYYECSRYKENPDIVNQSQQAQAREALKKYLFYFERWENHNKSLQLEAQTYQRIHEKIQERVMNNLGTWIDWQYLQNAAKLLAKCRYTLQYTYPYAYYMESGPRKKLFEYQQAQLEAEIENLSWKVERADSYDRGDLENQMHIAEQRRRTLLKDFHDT
# UniProt O60911: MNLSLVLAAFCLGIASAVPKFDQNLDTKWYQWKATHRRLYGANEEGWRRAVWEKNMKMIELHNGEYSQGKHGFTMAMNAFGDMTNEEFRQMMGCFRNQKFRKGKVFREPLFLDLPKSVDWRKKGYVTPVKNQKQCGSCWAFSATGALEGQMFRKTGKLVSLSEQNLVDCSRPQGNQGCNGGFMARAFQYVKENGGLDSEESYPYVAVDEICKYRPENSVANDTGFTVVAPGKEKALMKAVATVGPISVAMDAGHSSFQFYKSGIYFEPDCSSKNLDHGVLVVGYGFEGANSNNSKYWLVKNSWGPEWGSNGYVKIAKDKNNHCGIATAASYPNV
# UniProt O60664: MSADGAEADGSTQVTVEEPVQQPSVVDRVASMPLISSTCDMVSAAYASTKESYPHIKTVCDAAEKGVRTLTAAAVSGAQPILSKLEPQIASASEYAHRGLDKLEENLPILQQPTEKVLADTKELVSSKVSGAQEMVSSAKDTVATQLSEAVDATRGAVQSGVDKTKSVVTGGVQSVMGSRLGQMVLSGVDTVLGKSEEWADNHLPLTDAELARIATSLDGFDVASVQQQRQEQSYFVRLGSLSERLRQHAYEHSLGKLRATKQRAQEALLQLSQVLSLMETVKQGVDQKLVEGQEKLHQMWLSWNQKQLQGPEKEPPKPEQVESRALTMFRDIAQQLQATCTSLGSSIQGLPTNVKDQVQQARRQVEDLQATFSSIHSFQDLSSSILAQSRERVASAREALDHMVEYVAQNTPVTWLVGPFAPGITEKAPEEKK
# UniProt O75191: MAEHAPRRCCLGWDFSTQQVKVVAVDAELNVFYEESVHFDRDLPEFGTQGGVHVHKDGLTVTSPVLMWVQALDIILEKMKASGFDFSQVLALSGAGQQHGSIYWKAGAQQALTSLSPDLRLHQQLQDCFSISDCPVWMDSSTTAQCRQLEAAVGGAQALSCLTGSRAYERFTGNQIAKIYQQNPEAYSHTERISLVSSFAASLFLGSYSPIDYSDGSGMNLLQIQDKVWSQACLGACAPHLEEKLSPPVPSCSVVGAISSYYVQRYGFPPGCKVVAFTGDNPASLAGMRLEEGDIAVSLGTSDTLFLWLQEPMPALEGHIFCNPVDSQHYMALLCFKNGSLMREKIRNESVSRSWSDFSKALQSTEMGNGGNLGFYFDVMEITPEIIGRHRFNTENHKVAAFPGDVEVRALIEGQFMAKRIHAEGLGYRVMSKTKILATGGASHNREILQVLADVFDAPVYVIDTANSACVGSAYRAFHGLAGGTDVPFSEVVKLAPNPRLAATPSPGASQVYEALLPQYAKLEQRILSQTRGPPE
# UniProt O75600: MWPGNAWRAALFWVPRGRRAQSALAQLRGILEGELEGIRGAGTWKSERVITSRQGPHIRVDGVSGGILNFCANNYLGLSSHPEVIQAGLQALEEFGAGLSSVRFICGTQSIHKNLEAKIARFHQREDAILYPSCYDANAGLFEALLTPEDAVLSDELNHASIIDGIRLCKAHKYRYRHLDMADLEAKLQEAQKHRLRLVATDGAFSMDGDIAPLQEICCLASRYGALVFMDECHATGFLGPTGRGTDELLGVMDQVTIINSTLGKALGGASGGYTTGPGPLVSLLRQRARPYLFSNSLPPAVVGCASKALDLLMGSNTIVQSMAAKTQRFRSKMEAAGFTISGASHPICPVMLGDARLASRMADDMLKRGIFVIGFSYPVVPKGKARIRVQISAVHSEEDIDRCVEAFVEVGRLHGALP
# UniProt O75151: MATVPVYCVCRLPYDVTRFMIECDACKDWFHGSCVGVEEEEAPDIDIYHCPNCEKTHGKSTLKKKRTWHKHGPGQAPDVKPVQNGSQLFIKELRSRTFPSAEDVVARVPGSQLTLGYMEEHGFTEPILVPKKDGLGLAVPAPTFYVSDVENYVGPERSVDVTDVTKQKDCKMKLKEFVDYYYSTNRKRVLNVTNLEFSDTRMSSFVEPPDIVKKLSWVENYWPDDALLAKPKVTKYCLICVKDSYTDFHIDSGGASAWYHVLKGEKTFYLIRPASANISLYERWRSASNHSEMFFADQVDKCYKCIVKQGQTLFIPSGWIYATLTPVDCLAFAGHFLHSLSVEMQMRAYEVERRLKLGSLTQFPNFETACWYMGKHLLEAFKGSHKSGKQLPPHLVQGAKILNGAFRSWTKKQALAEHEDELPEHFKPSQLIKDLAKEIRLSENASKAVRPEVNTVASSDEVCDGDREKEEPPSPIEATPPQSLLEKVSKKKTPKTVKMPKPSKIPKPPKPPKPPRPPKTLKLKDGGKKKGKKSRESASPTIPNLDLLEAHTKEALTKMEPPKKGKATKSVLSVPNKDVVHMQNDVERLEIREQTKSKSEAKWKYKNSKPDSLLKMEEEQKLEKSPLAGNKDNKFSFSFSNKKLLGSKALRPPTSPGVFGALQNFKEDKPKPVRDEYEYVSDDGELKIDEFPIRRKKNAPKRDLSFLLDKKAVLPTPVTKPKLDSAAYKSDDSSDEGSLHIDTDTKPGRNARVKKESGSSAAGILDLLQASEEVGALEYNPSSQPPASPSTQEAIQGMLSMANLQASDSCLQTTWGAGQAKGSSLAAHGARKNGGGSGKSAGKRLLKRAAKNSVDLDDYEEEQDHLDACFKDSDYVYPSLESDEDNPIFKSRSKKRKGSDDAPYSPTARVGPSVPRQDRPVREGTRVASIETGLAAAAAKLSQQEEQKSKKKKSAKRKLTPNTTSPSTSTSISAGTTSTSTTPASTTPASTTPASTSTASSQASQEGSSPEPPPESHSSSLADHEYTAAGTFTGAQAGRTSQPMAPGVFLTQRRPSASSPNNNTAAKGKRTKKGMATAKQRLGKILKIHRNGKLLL
# UniProt O95394: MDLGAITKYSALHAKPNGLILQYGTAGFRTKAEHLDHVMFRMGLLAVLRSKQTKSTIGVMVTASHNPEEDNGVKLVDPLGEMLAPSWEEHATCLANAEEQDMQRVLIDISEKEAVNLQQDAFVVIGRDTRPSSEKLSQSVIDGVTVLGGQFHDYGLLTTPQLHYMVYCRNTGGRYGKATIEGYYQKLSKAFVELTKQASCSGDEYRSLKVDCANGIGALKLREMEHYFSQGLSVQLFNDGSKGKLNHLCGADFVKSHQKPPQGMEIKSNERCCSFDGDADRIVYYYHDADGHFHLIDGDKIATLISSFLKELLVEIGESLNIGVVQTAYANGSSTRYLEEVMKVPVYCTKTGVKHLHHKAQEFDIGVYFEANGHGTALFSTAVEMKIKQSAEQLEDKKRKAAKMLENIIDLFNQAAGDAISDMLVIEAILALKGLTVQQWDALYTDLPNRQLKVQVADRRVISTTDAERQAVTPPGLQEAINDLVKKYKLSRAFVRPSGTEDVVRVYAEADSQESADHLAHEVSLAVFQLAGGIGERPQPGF
# UniProt O43920, whole entry: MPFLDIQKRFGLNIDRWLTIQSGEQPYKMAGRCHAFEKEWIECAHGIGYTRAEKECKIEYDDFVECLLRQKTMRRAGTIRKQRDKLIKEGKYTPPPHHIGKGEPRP
# UniProt O95466, whole entry: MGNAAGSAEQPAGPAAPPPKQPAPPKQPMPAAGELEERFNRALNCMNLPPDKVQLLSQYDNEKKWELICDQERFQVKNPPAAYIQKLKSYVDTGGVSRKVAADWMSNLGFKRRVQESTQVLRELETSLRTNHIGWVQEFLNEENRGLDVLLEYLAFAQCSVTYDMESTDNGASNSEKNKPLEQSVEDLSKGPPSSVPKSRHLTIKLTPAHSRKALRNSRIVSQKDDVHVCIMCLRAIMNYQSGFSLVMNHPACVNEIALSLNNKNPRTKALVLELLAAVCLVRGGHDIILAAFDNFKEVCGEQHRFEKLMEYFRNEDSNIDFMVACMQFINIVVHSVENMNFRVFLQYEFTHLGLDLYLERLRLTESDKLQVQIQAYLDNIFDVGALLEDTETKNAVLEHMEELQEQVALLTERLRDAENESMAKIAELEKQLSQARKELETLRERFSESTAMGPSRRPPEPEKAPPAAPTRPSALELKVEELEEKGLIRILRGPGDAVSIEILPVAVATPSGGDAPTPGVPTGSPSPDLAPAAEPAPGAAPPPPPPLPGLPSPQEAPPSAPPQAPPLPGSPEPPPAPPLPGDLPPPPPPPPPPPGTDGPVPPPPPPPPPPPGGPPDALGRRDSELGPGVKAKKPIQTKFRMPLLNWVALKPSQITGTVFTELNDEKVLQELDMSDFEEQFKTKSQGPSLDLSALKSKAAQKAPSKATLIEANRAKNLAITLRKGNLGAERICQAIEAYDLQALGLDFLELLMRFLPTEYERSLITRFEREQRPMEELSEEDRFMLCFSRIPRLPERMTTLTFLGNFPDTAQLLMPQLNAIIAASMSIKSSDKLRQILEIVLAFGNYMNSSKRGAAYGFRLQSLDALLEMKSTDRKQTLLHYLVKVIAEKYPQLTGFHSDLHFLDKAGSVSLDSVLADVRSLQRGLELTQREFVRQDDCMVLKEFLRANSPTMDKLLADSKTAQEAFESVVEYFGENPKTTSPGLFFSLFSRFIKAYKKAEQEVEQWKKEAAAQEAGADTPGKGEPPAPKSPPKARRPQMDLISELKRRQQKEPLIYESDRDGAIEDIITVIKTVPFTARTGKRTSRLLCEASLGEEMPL
# ± gives the standard deviation of the averaged measurements. The entries are a selection whose mix differs from that of the whole data set.
# Compound: Nc1ncnc2c1ncn2[C@@H]1O[C@H](COP(=O)(O)OP(=O)(O)NP(=O)(O)O)[C@@H](O)[C@H]1O [adenylyl imidodiphosphate]
# Assay: NP40-soluble protein abundance relative to vehicle (solubility fold change) (ratio); higher = more soluble protein in presence of AMP-PNP
# Procedure, shortened: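 Eight concentrations, 0.1 to 10 mM, were tested on Jurkat crude lysate for 10 min at room temperature and then 3 min at 37 °C, in three independent experiments. The lysate was solubilised with 0.8% NP40 and benzonase, ultracentrifuged, and the supernatant TMT-labelled for LC-MS/MS. Each value is the fold change against the detergent-processed vehicle in its own replicate, from vsn-normalised intensities.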
Target,NP40-soluble protein abundance (concentration: 1mM),NP40-soluble protein abundance (concentration: 2mM),NP40-soluble protein abundance (concentration: 4mM),NP40-soluble protein abundance (concentration: 6mM),NP40-soluble protein abundance (concentration: 8mM),NP40-soluble protein abundance (concentration: 10mM)
CAND2 (UniProt O75155),0.973 ± 0.018,0.942 ± 0.027,0.986 ± 0.045,1 ± 0.066,1.01 ± 0.031,1.02 ± 0.023
CCNT1 (UniProt O60563),1.1 ± 0.051,1.19 ± 0.074,1.21 ± 0.064,1.25 ± 0.12,1.31 ± 0.11,1.4 ± 0.14
UniProt O75530,0.978 ± 0.038,1 ± 0.018,1.05 ± 0.016,1.14 ± 0.097,1.22 ± 0.057,1.22 ± 0.05
ARIH2 (UniProt O95376),1.02 ± 0.038,1.03 ± 0.022,1.04 ± 0.051,0.983 ± 0.026,1.01 ± 0.017,1.01 ± 0.042
CTSV (UniProt O60911),0.981 ± 0.042,1.04 ± 0.028,0.997 ± 0.042,1 ± 0.024,0.976 ± 0.022,1.02 ± 0.027
AQR (UniProt O60306),0.988 ± 0.022,0.888 ± 0.12,1 ± 0.094,0.922 ± 0.026,0.994 ± 0.095,0.915 ± 0.07
UniProt O60664 and related entries,0.972 ± 0.0099,1.05 ± 0.11,0.949 ± 0.039,1.04 ± 0.052,0.97 ± 0.035,1.02 ± 0.061
UniProt O75170-3|O75170-4|O75170-5|O75170 and related entries,0.9985 ± 0.0062,0.99 ± 0.014,1.017 ± 0.01,0.979 ± 0.013,0.953 ± 0.044,0.971 ± 0.028
UniProt O94916 and related entries,1.01 ± 0.056,1.02 ± 0.049,1 ± 0.044,0.988 ± 0.037,1.03 ± 0.049,1 ± 0.046
XYLB (UniProt O75191),1.02 ± 0.027,0.984 ± 0.036,1.02 ± 0.029,0.995 ± 0.039,0.97 ± 0.032,0.99 ± 0.025
UniProt O75600 and related entries,0.96 ± 0.018,0.917 ± 0.072,0.9873 ± 0.0089,0.9642 ± 0.0082,0.98 ± 0.028,0.958 ± 0.029
PHF2 (UniProt O75151),1.03 ± 0.011,1.09 ± 0.042,1.09 ± 0.044,1.11 ± 0.044,1.14 ± 0.051,1.27 ± 0.079
UniProt O60825 and related entries,1.03 ± 0.024,0.978 ± 0.023,1.04 ± 0.032,1.02 ± 0.043,1.069 ± 0.0027,1.02 ± 0.016
UniProt O95394 and related entries,1.02 ± 0.026,0.961 ± 0.049,1.01 ± 0.019,0.973 ± 0.019,0.984 ± 0.014,0.973 ± 0.011
NDUFS5 (UniProt O43920),1.02 ± 0.068,1.06 ± 0.15,1.01 ± 0.079,1.09 ± 0.068,1.08 ± 0.069,1.06 ± 0.039
ERLIN1 (UniProt O75477),0.976 ± 0.09,0.991 ± 0.058,0.927 ± 0.11,0.986 ± 0.11,0.943 ± 0.096,0.991 ± 0.18
UniProt O95466-2|O95466-3,1.01 ± 0.022,1.04 ± 0.049,1 ± 0.037,0.9896 ± 0.0097,0.951 ± 0.026,0.983 ± 0.019

# Single values from the list.
# ERLIN1 (UniProt O75477) | NP40-soluble protein abundance (concentration: 8mM): 0.943 ± 0.096
# CAND2 (UniProt O75155) | NP40-soluble protein abundance (concentration: 1mM): 0.973 ± 0.018
